Here are results for 27 compounds from the supplement of paper PMC5393889.

This is one part of the list.

The experiment concerns Caenorhabditis elegans N2. Nature of the experiment: aldicarb interaction hit call (worm growth perturbed in combination with 10 uM aldicarb in both replicates, no effect as single agent) (binary (1 = interacts)); higher = interacts with aldicarb (growth perturbed). The conditions noted are these: first compound 1.5 µM; aldicarb concentration 10 µM; 6 days; 20 °C.
Consider `FC(F)(F)c1ccc(-c2noc(CN3CCC(N4CCSCC4)CC3)n2)cc1` [wact-238] + CNC(=O)O/N=C/C(C)(C)SC [aldicarb], for which the “aldicarb interaction hit call” value was inactive: 0. With `CN(Cc1ccc2nonc2c1)CC1CCN(CCc2cccc(F)c2)CC1` [wact-324] + CNC(=O)O/N=C/C(C)(C)SC [aldicarb], the “aldicarb interaction hit call” value was inactive: 0. Take `O=C(c1ccc(Cl)cc1)C1CCCN(Cc2ccc3ncccc3c2)C1` (configuration not stated) [wact-317] + CNC(=O)O/N=C/C(C)(C)SC [aldicarb]: the “aldicarb interaction hit call” value was inactive: 0. Consider `Cc1cc(SCc2ccc(Cl)cc2)ncn1` [wact-577] + CNC(=O)O/N=C/C(C)(C)SC [aldicarb], for which the “aldicarb interaction hit call” value was inactive: 0. As to `CC(NC(=O)c1csc2nc(-c3ccc(C(F)(F)F)cc3)cn12)c1ccncn1` (configuration not stated) [wact-339] + CNC(=O)O/N=C/C(C)(C)SC [aldicarb], the “aldicarb interaction hit call” value is inactive: 0. As to `Oc1ccccc1-c1nc(/C=C/c2ccc(F)cc2)n[nH]1` [wact-536] + CNC(=O)O/N=C/C(C)(C)SC [aldicarb], the “aldicarb interaction hit call” value was inactive: 0. For `c1coc(-c2nc(-c3cccs3)no2)c1` [wact-175] + CNC(=O)O/N=C/C(C)(C)SC [aldicarb], the “aldicarb interaction hit call” value was inactive: 0. The same measure for `Cc1ccc(-c2noc(-c3ccccn3)n2)cc1` [wact-611] + CNC(=O)O/N=C/C(C)(C)SC [aldicarb]: inactive: 0; for `Fc1ccc(CNc2ccc(N3CCN(Cc4ccccc4)CC3)cc2)cc1` [wact-631] + CNC(=O)O/N=C/C(C)(C)SC [aldicarb]: inactive: 0. As to `C#CCOc1c(Cl)cc(/C=C(\Cl)c2nc(-c3ccsc3)no2)cc1OC` [wact-347] + CNC(=O)O/N=C/C(C)(C)SC [aldicarb], the “aldicarb interaction hit call” value was inactive: 0. The same measure for `CCCCCc1ccc(-c2ccc(OC)cc2)nc1` [wact-55] + CNC(=O)O/N=C/C(C)(C)SC [aldicarb]: inactive: 0; for `Cl.NCc1cc(Cl)c(OCc2ccccc2)c(Cl)c1` [wact-129] + CNC(=O)O/N=C/C(C)(C)SC [aldicarb]: inactive: 0; for `OCn1c2ccccc2c2cc(Cl)ccc21` [wact-35] + CNC(=O)O/N=C/C(C)(C)SC [aldicarb]: inactive: 0. The same measure for `Oc1cccc2ccc(/C=C/c3cccs3)nc12` [wact-605] + CNC(=O)O/N=C/C(C)(C)SC [aldicarb]: active: 1; for `S=C(Nc1cccc(Cl)c1)Nc1ccc(Cl)c(Cl)c1` [wact-530] + CNC(=O)O/N=C/C(C)(C)SC [aldicarb]: inactive: 0. The result for `c1ccc2[nH]c(-c3cscn3)nc2c1` [wact-617] + CNC(=O)O/N=C/C(C)(C)SC [aldicarb] reads inactive: 0; that for `C#Cc1cccc(NC(=O)/C=C/c2ccc(Cl)cc2)c1` [wact-348] + CNC(=O)O/N=C/C(C)(C)SC [aldicarb], inactive: 0. As to `CC(NC(=O)C(Cl)(Cl)Cl)c1ccccc1` (configuration not stated) [wact-214] + CNC(=O)O/N=C/C(C)(C)SC [aldicarb], the “aldicarb interaction hit call” value is inactive: 0. Turning to `O=C(c1cc(COc2ccc(F)cc2Cl)on1)N1CCC(c2ccncc2)CC1` [wact-280] + CNC(=O)O/N=C/C(C)(C)SC [aldicarb], the “aldicarb interaction hit call” value was inactive: 0. The same measure for `Cc1ccc(N2CCN(C/C=C/c3ccccc3)CC2)cc1` [wact-44] + CNC(=O)O/N=C/C(C)(C)SC [aldicarb]: inactive: 0. Take `O=C(Nc1ccc(-c2cccc(F)c2)cc1)C1CCCN(Cc2ccccn2)C1` (configuration not stated) [wact-302] + CNC(=O)O/N=C/C(C)(C)SC [aldicarb]: the “aldicarb interaction hit call” value is inactive: 0.

For `CCCCC(=O)Nc1cccc(NC(=S)NC(=O)c2ccc3c(c2)OCCO3)c1` [wact-504] + CNC(=O)O/N=C/C(C)(C)SC [aldicarb], the “aldicarb interaction hit call” value was inactive: 0. On to `CN(Cc1cnn(C)c1)Cc1cn(-c2ccc(F)cc2)nc1-c1ccccc1Cl` [wact-316] + CNC(=O)O/N=C/C(C)(C)SC [aldicarb], for which the “aldicarb interaction hit call” value is inactive: 0.

Consider `OCc1ccc(OCc2ccc(I)cc2)cc1` [wact-505] + CNC(=O)O/N=C/C(C)(C)SC [aldicarb], for which the “aldicarb interaction hit call” value was inactive: 0. The same measure for `COc1ccc(OCC(O)CNc2ccc(Br)cc2)cc1` (configuration not stated) [wact-627] + CNC(=O)O/N=C/C(C)(C)SC [aldicarb]: inactive: 0. Turning to `Cc1cc2c(NCCc3ccccc3)ncnc2s1.Cl` [wact-550] + CNC(=O)O/N=C/C(C)(C)SC [aldicarb], the “aldicarb interaction hit call” value is inactive: 0. Turning to `O=C(/C=C/c1ccccc1)c1ccc2c(c1)OCCO2` [wact-413] + CNC(=O)O/N=C/C(C)(C)SC [aldicarb], the “aldicarb interaction hit call” value is inactive: 0.
